{"source": "the supplement of paper PMC4604168 (melanoma cell lines)", "note": "Some of the results follow. Single values are uncertain, as repeats are few or missing.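 Cells were imaged in 1,536-well plates, and nuclei stained with an antibody against cleaved PARP were counted against all DNA-stained nuclei to give the apoptosis fraction. Screening doses were chosen to leave most cells alive, and resting and induced cleaved-PARP levels differ strongly between cell lines.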", "data": [{"test_system": "CBRC034 (line from a melanoma biopsy)", "assay": "cleaved PARP positive nuclei fraction relative to DMSO control; melanoma cells; higher = more apoptosis", "details": "library dose: low library concentration; 72 h", "units": {"cleaved PARP positive nuclei fraction": "%"}, "values": [{"smiles": "CCc1ccc(CCOc2ccc(CC3SC(=O)NC3=O)cc2)nc1", "note": "(stereo unspecified) [pioglitazone] + CCCCCCCCCCCC1=C(O)C(=O)C=C(O)C1=O [Embelin] (first compound 2 µM, partner dose 1.2 µM)", "cleaved PARP positive nuclei fraction": 75.7}, {"smiles": "CN(C)S(=O)(=O)c1ccc2c(c1)/C(=C/c1cc3c([nH]1)CCCC3)C(=O)N2", "note": "+ c1cc(-c2cnn3cc(-c4ccc(OCCN5CCCCC5)cc4)cnc23)ccn1 [Dorsomorphin] (first compound 0.4 µM, partner dose 0.4 µM)", "cleaved PARP positive nuclei fraction": 105}, {"smiles": "O=C(Nc1ccccc1)c1cc([N+](=O)[O-])ccc1Cl", "note": "+ O=c1cc(-c2cccc3c2Sc2ccccc2S3)oc(N2CCOCC2)c1 [KU55933] (first compound 2 µM, partner dose 1 µM)", "cleaved PARP positive nuclei fraction": 144}, {"smiles": "COc1cc2ncnc(Nc3ccc(Oc4ccccc4)cc3)c2cc1OC", "note": "+ O=C(O)C(=O)Nc1sc2c(c1C(=O)O)CCNC2 [TCS401] (first compound 2 µM, partner dose 1.66667 µM)", "cleaved PARP positive nuclei fraction": 212}, {"smiles": "COc1ccc(-c2ccc3c(N4CCOCC4)nc(N4C[C@@H](C)O[C@@H](C)C4)nc3n2)cc1CO", "note": "+ Oc1nc(-c2ccc(C(F)(F)F)cc2)nc2c1CSCC2 [XAV939] (first compound 0.02 µM, partner dose 2 µM)", "cleaved PARP positive nuclei fraction": 50.6}, {"smiles": "CN(NC(=O)CC(=O)NN(C)C(=S)c1ccccc1)C(=S)c1ccccc1", "note": "+ CCc1ccc(CCOc2ccc(CC3SC(=O)NC3=O)cc2)nc1 [pioglitazone] (first compound 0.006 µM, partner dose 2 µM)", "cleaved PARP positive nuclei fraction": 94.1}]}]}
